# Measured values taken from US12161630B2, “Methods to control infection using new generation small molecule growth inhibitors” (priority 2017, dated 2024).
# Some entries share one result that the patent states for a list of compounds.
# Tested on: wild-type S. typhimurium
# Assay: Persistence of S. typhimurium in tomato fruits after preventive or curative SM treatment
# Assay type: in vivo
# Conditions: pretreatment by soaking and spraying before inoculation; green mature and ripened stage
structure (smiles),measurement,value
"CCOc1cc(/C=N/N=C(N)N)ccc1OCc1ccc(Cl)cc1 [SM5, N″-{4-[(4-chlorobenzyl)oxy]-3-ethoxybenzylidene}carbonohydrazonic diamide]",prevention of Salmonella growth in tomato fruits,up to 95%
